Reference: paper PMC7144943
No constants are given. Whether binding was seen depends on the method and setting. Binding seen in cells or lysates may run through a third protein. These calls come from enrichment with a bait or labelling near it, and not all partners need be listed. No binding means not detected with the bait.

Amino acid sequences for entries named in this document (tags omitted).
UniProt A1ZAW0: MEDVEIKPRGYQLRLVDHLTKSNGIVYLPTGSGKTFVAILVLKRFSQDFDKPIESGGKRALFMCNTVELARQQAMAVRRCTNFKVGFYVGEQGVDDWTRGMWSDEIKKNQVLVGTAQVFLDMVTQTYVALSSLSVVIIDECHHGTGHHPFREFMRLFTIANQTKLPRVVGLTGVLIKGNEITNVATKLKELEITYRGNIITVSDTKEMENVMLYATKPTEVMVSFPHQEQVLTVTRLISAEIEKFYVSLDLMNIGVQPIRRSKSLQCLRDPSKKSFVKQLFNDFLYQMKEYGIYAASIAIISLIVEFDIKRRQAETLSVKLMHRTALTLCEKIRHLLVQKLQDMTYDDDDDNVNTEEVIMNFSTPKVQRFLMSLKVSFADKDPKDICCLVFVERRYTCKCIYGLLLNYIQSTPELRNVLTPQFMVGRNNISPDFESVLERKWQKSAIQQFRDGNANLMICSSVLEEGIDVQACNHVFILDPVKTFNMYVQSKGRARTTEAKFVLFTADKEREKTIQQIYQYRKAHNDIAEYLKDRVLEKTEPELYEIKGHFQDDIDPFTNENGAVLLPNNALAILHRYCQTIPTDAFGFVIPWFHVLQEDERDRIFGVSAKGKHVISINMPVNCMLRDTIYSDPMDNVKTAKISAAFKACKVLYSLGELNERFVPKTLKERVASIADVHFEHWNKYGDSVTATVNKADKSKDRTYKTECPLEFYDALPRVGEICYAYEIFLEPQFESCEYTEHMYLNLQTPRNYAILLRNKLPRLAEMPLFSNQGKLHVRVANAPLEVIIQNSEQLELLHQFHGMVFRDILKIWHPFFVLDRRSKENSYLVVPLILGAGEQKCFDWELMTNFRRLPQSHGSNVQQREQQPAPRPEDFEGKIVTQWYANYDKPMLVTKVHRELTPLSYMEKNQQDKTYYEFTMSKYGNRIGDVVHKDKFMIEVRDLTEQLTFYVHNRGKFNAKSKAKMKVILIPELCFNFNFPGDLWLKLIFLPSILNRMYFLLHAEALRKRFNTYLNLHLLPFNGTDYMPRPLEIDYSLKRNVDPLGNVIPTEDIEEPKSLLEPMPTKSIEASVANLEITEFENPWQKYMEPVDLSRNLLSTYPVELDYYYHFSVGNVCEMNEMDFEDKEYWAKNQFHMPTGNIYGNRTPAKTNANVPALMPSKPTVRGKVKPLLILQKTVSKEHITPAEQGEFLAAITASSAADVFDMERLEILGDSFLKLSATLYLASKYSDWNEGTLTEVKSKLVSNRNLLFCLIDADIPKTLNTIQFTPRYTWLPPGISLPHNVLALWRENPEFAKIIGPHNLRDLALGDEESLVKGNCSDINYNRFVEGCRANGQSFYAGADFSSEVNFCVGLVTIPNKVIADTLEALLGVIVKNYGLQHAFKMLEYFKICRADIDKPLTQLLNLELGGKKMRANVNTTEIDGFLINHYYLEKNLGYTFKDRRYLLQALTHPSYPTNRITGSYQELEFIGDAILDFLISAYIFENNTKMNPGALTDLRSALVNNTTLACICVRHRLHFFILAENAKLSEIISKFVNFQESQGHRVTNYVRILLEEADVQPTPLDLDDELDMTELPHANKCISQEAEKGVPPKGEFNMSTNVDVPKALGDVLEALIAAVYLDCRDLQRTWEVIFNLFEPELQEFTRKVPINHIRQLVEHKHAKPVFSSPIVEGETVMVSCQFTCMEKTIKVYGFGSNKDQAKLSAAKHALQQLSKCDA

B1: Rcc1 (the Ran guanine nucleotide exchange factor) (protein, UniProt P25171 1-547)
chain: MPRRKALTNNNNAGEAEQQPPKAKRARIAFHLELPKRRTVLGNVLVCGNGDVGQLGLGEDILERKRLSPVAGIPDAVDISAGGMHNLVLTKSGDIYSFGCNDEGALGRDTSEDGSESKPDLIDLPGKALCISAGDSHSACLLEDGRVFAWGSFRDSHGNMGLTIDGNKRTPIDLMEGTVCCSIASGADHLVILTTAGKVFTVGCAEQGQLGRLSERSISGEGRRGKRDLLRPTQLIITRAKPFEAIWATNYCTFMRESQTQVIWATGLNNFKQLAHETKGKEFALTPIKTELKDIRHIAGGQHHTVILTTDLKCSVVGRPEYGRLGLGDVKDVVEKPTIVKKLTEKIVSVGCGEVCSYAVTIDGKLYSWGSGVNNQLGVGDGDDELEPIVVVSKNTQGKHMLLASGGGQHAIFLVKADKQDQKENVPVKVSGSSSISKKDKTPPQDNVDKEAENVDKQEQKENLPAKASTSSKKNKTPPQDNADKEAENVDKQEQKENLPAKASTSSKKIKTPPQDDAAEEVEEESAQEPTPKKAKKPAAKRGGKKT
B2: Kap-α3 (an importin-α homolog) (protein, UniProt Q9V455 1-514)
chain: MTSMEQNRLQNFKNKGKDQDEMRRRRNEVTVELRKNKREETILKRRNVPNLDSNTDEEEQLSSSIDLKKLAKAAADATKPEQQLAAVQAARKLLSSDKNPPINDLIQSDILPILVECLKQHNHTMLQFEAAWALTNIASGTSAQTNEVVAAGAVPLFLQLLNSPAPNVCEQAVWALGNIIGDGPLLRDFVIKHGVVQPLLSFIKPDIPITFLRNVTWVIVNLCRNKDPAPPTATIHEILPALNVLIHHTDTNILVDTVWAISYLTDGGNDQIQMVIESGVVPKLIPLLGNSEVKVQTAALRAVGNIVTGSDEQTQVVLNYDALSYFPGLLSHPKEKIRKEAVWFLSNITAGNQSQVQAVINVGLLPKIIENLSKGEFQTQKEAAWAISNLTISGNREQVFTLIKEGVIPPFCDLLSCQDTQVINVVLDGLNNMLKVADSHVEAVANCIEECEGLAKIERLQSHENVEIYKLAYEIIDQYFTDEGEQTNMAPTSDGAQYNFDPHADRLTMNSFNF

Biological target: Flag-Blanks (knock-in, copper-inducible mtnDE promoter) (Drosophila (endogenous locus in S2 cells)) (UniProt Q9VRL8)
Test: affinity purification with mass spectrometry; Flag-Blanks immunoprecipitations from extracts of the Flag-Blanks knock-in cell line; details in the supplementary information

Row | binding | Molecule
1 | no binding | Dcr-2 (from UniProt A1ZAW0 1-1722) (enzyme)
2 | binds | Ran (from UniProt Q9VZ23 1-216)
3 | binds | B1
4 | binds | B2
